Assay results published in US7589167B2, “ZA loops of bromodomains” (J. David Gladstone Institutes, priority 2000, dated 2009).
At least one peptide structure holds a part that was inferred or is arguable (an end, a ring closure or a residue). Where no end group is shown, it is not given here.

Chains of the proteins cited; added tags and fusions are not shown. Residues count along the entry.
UniProt Q92793, 1085-1192 limits assumed: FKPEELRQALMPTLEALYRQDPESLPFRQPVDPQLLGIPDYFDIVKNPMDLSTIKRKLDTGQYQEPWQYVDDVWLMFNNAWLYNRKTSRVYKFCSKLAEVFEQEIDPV
UniProt Q13263, 695-799 limits assumed: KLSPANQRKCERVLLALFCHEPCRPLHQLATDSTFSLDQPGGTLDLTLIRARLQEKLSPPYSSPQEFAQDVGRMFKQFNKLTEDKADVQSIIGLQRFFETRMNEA

Columns and labels:
[1] = biological target: p300/CBP bromodomain (Homo sapiens, UniProt Q92793); test: NMR binding study (2D 1H-15N HSQC) of the CBP bromodomain; conditions: 2D HSQC
[2] = biological target: T1, GST-P/CAF bromodomain (Homo sapiens, UniProt Q92831); test: Peptide binding assay (biotinylated Tat peptide on streptavidin agarose, anti-GST western blot); conditions: 10 μM GST-bromodomain, 50 μM biotinylated peptide
T1 construct: The bromodomain-containing constructs from P/CAF, CBP and TIF-1β were cloned into pGEX4T-3 vector (Pharmacia); made in house; host or cells: E. coli BL21 (DE3) codon plus
T1 sequence (Q92831 723-827 limits assumed): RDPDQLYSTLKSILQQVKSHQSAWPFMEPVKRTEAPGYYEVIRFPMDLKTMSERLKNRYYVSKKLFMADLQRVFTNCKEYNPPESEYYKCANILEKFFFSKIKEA

[3] = biological target: T2, bromodomain of TIF1β (Homo sapiens, UniProt Q13263); test: as above; conditions: 10 μM GST-bromodomain, 50 μM biotinylated peptide
T2 construct: The bromodomain-containing constructs from P/CAF, CBP and TIF-1β were cloned into pGEX4T-3 vector (Pharmacia); made in house; host or cells: E. coli BL21 (DE3) codon plus

[4] = biological target: T3, bromodomain of CBP (Homo sapiens, UniProt Q92793); test: as above; conditions: 10 μM GST-bromodomain, 50 μM biotinylated peptide
T3 construct: The bromodomain-containing constructs from P/CAF, CBP and TIF-1β were cloned into pGEX4T-3 vector (Pharmacia); made in house; host or cells: E. coli BL21 (DE3) codon plus

[5] = biological target: T4, P/CAF bromodomain (Homo sapiens, UniProt Q92831, P804A/P805A); test: Peptide competition assay with biotinylated wild type Tat AcK50 peptide (western blot); format: binding; conditions: protein ~10 μM, wild type:mutant peptide 1:2
T4 construct: poly-His (N, cleaved yes); made in house; host or cells: Escherichia coli BL21(DE3)
T4 sequence (Q92831 719-832 P804A/P805A): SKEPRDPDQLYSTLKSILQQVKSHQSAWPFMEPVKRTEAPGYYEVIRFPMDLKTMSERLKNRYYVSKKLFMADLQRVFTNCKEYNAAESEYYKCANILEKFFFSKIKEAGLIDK

## SYGRK(Ac)KRRQRC [Tat AcK50 peptide, SYGR-AcK-KRRQRC]
[1]
  binding to the p300/CBP bromodomain (qualitative): did not bind the lysine-acetylated Tat peptide in a specific manner
[2]
  binding to lysine-acetylated Tat peptide (qualitative): binds tightly
[3]
  binding to lysine-acetylated Tat peptide (qualitative): did not show any binding
[4]
  binding to lysine-acetylated Tat peptide (qualitative): did not show any binding
[5]
  competition with / binding relative to Tat AcK50 peptide (qualitative): almost no competition
